Data on two substances can be found in publication PMC7224192, “MYC transcription activation mediated by OCT4 as a mechanism of resistance to 13-cisRA-mediated differentiation in neuroblastoma”.

Sequences of proteins named here, by UniProt entry; tags and fusion partners are left off.
UniProt Q01860: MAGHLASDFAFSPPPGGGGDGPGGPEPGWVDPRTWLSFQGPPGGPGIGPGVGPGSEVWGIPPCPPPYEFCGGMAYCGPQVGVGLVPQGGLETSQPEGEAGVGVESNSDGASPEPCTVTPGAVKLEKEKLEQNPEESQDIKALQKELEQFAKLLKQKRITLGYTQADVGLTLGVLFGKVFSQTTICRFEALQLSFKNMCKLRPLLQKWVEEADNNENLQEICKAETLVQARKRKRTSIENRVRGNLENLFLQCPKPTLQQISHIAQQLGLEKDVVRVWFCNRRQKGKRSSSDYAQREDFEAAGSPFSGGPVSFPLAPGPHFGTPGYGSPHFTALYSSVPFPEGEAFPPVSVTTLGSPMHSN
UniProt P49137: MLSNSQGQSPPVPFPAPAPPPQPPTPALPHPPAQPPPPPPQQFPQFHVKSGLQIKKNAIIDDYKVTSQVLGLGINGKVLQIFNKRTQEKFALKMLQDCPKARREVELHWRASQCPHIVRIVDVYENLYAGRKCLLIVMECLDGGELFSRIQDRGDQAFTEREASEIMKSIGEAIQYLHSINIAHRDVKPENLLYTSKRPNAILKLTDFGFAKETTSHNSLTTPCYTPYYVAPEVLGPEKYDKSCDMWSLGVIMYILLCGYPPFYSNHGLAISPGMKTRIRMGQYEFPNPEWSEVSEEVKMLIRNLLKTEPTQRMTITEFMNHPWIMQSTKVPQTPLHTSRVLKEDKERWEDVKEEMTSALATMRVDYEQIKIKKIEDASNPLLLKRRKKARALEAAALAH
UniProt P78527: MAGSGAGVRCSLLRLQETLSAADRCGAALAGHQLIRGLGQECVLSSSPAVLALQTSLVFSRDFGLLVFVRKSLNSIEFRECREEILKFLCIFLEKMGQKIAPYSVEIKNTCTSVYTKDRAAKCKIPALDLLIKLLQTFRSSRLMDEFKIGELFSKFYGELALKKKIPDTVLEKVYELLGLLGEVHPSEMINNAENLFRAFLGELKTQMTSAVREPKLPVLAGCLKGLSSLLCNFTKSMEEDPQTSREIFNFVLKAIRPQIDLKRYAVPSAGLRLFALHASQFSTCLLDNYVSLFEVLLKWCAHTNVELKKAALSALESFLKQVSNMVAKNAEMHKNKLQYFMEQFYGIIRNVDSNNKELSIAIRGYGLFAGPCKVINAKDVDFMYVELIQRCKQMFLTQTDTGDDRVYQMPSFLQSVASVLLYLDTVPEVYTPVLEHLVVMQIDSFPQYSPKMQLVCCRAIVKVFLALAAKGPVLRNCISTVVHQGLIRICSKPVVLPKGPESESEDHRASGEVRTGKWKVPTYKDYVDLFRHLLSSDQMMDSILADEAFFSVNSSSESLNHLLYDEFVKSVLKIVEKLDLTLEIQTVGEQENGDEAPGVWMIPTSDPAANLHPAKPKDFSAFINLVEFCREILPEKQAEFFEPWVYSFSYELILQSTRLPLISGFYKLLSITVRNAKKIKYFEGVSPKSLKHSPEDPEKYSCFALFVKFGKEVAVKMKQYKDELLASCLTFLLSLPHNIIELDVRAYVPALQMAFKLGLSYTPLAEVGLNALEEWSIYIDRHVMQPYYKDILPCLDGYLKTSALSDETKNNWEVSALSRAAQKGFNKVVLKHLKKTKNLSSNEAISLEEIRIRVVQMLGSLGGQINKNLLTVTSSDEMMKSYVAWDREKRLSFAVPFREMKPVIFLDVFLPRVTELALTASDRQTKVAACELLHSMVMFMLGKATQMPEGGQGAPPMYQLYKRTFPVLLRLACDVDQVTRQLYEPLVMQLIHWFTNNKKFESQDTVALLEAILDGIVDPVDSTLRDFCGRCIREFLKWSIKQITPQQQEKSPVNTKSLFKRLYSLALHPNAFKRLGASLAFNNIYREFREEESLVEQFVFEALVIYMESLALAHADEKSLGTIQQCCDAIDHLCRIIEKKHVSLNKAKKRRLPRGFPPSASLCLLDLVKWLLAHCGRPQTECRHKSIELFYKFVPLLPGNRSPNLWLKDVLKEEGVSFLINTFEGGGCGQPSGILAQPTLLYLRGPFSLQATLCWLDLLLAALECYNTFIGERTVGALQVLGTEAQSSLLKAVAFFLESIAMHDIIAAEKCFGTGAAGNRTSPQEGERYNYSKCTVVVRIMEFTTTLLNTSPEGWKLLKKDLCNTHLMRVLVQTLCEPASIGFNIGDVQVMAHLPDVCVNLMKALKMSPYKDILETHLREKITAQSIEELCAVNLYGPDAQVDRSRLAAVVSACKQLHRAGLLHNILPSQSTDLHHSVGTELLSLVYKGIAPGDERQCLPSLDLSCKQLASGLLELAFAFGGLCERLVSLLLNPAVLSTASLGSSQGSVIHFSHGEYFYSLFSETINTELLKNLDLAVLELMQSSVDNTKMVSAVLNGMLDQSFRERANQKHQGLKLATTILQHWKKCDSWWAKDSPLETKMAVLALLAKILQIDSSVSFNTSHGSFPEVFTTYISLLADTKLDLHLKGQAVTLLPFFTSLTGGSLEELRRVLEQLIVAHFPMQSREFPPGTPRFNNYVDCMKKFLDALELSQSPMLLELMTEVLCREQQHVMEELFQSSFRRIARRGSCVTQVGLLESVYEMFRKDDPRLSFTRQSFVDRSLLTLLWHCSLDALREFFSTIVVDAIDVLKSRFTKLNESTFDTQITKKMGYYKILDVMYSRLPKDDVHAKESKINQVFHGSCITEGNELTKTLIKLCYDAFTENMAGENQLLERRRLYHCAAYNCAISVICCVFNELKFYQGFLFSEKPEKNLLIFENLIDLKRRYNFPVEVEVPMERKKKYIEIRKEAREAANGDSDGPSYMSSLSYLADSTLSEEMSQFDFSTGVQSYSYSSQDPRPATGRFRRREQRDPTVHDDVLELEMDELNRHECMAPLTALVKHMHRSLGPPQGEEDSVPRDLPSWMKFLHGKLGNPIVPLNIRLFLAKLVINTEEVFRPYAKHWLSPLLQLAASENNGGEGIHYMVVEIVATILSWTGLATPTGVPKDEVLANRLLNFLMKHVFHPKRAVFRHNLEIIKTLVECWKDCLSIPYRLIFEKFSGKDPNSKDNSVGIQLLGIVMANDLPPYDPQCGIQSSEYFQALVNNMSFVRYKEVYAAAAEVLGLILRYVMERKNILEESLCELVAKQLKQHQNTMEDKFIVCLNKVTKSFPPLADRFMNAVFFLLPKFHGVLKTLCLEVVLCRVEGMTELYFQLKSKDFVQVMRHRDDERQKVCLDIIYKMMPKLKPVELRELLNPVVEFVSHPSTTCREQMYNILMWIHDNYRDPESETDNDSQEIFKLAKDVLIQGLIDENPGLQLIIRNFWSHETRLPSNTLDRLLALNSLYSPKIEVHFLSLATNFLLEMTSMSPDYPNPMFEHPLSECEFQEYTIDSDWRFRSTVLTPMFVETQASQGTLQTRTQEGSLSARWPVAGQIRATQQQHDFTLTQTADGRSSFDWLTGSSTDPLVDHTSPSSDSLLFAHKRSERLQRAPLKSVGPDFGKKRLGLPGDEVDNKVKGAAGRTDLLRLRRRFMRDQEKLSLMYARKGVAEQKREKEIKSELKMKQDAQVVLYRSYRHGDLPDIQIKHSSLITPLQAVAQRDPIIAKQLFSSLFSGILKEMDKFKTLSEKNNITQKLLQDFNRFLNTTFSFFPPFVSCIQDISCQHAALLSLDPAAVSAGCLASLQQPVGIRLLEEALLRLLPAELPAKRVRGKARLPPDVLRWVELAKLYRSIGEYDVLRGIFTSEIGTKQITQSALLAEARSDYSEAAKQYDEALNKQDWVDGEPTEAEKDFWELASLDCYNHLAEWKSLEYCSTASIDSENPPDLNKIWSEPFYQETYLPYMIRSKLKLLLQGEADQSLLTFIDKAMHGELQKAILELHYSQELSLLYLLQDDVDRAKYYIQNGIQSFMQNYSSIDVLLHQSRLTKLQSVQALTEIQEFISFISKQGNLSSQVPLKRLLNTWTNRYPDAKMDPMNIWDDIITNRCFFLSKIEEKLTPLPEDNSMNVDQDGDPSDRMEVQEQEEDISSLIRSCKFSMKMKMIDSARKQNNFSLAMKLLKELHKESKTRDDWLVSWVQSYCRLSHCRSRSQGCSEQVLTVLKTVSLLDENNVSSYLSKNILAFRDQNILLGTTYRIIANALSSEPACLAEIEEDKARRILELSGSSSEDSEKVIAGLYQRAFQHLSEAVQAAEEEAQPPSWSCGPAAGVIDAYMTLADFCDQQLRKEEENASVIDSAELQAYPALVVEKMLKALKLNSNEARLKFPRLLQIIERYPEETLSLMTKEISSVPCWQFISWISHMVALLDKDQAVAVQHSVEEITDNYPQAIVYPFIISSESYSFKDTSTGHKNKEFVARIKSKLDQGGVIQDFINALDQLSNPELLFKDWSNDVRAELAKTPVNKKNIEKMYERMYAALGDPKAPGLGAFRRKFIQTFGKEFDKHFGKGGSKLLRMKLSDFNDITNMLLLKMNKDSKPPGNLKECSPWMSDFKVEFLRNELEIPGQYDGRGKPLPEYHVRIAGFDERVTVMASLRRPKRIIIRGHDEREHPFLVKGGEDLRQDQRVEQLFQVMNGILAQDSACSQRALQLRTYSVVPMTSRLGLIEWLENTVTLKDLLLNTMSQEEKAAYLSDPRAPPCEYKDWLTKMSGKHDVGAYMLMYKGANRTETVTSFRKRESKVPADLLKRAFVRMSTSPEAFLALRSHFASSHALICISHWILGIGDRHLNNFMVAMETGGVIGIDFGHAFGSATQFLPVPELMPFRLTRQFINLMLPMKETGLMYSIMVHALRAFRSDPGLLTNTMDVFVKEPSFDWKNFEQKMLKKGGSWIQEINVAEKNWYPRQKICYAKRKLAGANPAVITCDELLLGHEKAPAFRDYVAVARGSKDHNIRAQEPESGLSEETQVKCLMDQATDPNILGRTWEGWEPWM

The experiment addresses mycDDK-tagged wild-type OCT4 (POU5F1) (human) (UniProt Q01860). Briefly: affinity purification with mass spectrometry; anti-FLAG (EZview Red) IP of OCT4-mycDDK from cytosolic and nuclear fractions of LHN-R cells; SDS-PAGE, entire lanes analysed by mass spectrometry for protein ID.

No constants are given. Whether binding was seen depends on the method and setting. Binding seen in cells or lysates may run through a third protein. These calls come from enrichment with a bait or labelling near it, and not all partners need be listed.

Consider “MAPKAPK2 (MK2), endogenous (from UniProt P49137 1-400) (enzyme)”, for which the binding result is recorded as “binds”.

For the substance “DNA-PKcs, endogenous (from UniProt P78527 1-4128) (enzyme)”, the binding result is on record as “binds”.
